# Test results taken from PMC11057142.
# By UniProt entry, the sequences of proteins in these tests, tags left out.
# UniProt Q86TM6: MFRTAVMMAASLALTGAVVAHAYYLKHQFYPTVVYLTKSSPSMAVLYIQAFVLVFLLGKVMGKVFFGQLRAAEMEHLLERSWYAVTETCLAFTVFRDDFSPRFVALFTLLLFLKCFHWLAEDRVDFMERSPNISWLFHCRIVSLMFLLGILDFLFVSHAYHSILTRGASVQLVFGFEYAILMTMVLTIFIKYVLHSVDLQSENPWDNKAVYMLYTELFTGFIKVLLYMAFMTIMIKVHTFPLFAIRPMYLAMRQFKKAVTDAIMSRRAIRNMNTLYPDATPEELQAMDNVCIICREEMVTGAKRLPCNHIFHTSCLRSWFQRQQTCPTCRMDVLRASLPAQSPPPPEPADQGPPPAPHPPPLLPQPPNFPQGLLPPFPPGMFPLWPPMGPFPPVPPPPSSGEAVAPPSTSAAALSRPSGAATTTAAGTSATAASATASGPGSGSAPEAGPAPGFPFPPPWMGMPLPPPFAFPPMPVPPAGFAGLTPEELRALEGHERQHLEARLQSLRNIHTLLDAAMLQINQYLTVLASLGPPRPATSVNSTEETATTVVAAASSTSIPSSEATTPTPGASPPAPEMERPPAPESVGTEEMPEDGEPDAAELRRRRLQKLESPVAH
# UniProt P09429: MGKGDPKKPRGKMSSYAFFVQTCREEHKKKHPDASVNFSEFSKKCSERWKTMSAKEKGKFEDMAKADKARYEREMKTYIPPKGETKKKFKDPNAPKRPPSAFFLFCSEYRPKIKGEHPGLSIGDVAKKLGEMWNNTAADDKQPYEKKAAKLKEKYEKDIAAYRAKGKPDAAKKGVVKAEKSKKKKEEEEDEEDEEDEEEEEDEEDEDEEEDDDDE
# Results are given in words; binding and its absence hold for the method and conditions named. In cells and extracts the contact can be indirect. Some entries that bind do so weakly or less than the wild type.
# Target: E3 ubiquitin ligase synoviolin (SYVN1) (human (in NPA87 cells)) (UniProt Q86TM6)
# Experiment: co-IP; NPA87 cells lysed in IP lysis buffer (Beyotime) at 4 °C for 30 min; Protein A/G agarose beads; SDS-PAGE and immunoblotting; precipitating antibody not stated
substance,measurement,value
HMGB1 (from UniProt P09429 1-215),binding,binds
